Measurements as given in the supplement of paper PMC5949888.
Most values lie at the floor of the assay. Slopes are relative: functional sequences can read slightly below zero.

Each substance was assayed on Saccharomyces cerevisiae PS128 hsf1 delta, HSF1(1-493) fusion (assay: growth estimate (transactivation domain function in HSF1 fusion, heat-shock survival) (a.u. (slope of normalised read count over time)); higher = stronger growth at 37°C, i.e. more transactivation activity). Settings: library: random library.
Work on PIQGGYSGNSHYADEC yielded a growth estimate of less than -0.25.
PDLIWWVNRYQVLPVQPYRH was tested, and the growth estimate was less than -0.25.
For ETIWGKACSTRVDRSGLSPQ, the growth estimate was less than -0.25.
With LIWGRVFRTQSCPRRGSWKR the growth estimate was less than -0.25.
For HAPFQGLSLERRRAESWLRQ, the growth estimate was less than -0.25.
Substance AMHRGEASWSYSDSIRPYEA has a growth estimate of less than -0.25.
RKEKRGDFAENGTGGMEPIV gave a growth estimate of less than -0.25.
In the case of SELEAQDNKNRAWLL, the growth estimate was less than -0.25.
Substance VAGADRNGVGLPNRPAHTRP has a growth estimate of less than -0.25.
For IAQGHLCVQASEAEIKLATA, the growth estimate was less than -0.25.
In the case of SDTENPKLFRLCMVMRDFNP, the growth estimate was less than -0.25.
Substance GSGTIDIESIRHPAADQQEP has a growth estimate of less than -0.25.
WWNFFNKLSVVVCSNRVTVR showed a growth estimate of less than -0.25.
For HCV, the growth estimate was less than -0.25.
For KFSLVGSPGAGQVRGASLVR, the growth estimate was less than -0.25.
Work on SPEPDPVPRLRVVEDGATLG yielded a growth estimate of less than -0.25.
SCMRGTIEVLRK was tested, and the growth estimate was less than -0.25.
With GKRGSFCFTIRDRALVTGRR the growth estimate was less than -0.25.
Substance VTRLCS has a growth estimate of less than -0.25.
Substance VFQPCI has a growth estimate of less than -0.25.
RITCGNLNTPRDESA showed a growth estimate of less than -0.25.
In the case of SLPGHNSIQGRSIVRSRVPI, the growth estimate was less than -0.25.
With NLFI the growth estimate was less than -0.25.
FAEVRIVYF gave a growth estimate of less than -0.25.
YWWLRPDLSHGETYRMFYSS was tested, and the growth estimate was less than -0.25.
RHIRPNFAW was tested, and the growth estimate was less than -0.25.
AQG was tested, and the growth estimate was less than -0.25.
VIM was tested, and the growth estimate was 0.246.
Substance PSRLGSGRQVQSISRDNSSA has a growth estimate of -0.243.
In the case of INRVK, the growth estimate was less than -0.25.
TGPPYGPVLGLLILPAPLKV was tested, and the growth estimate was less than -0.25.
VLSIIWF showed a growth estimate of less than -0.25.
In the case of ISVKHLDA, the growth estimate was less than -0.25.
SAQKLRHRLVGRLIVTRLKD gave a growth estimate of less than -0.25.
For CICASTGYT, the growth estimate was less than -0.25.
SSFICTCHVGLPDPRDLLTY gave a growth estimate of -0.248.
In the case of YSAFTRRPCTCHHSSSRRSD, the growth estimate was less than -0.25.
For SVNPLVSGGEDMR, the growth estimate was less than -0.25.
In the case of CSRRDGSASPPRAHRLDNRM, the growth estimate was -0.204.
With RPRN the growth estimate was less than -0.25.
With FARMPSAIKYYLVKVHRGAR the growth estimate was less than -0.25.
SLIAESL was tested, and the growth estimate was less than -0.25.
With ERESLVVWLIQGNAVLCHLF the growth estimate was less than -0.25.
For GFANITTGMRQAVPYIEGGP, the growth estimate was less than -0.25.
Substance QFQTRFEKAVWKYM has a growth estimate of -0.246.
For SQVLMVIVDL, the growth estimate was less than -0.25.
In the case of AARLSAACCRVITGDVS, the growth estimate was less than -0.25.
In the case of ERVAWWLVARCLRTPVGEDV, the growth estimate was less than -0.25.
For GDVMGRRSERVLSAKIPQFS, the growth estimate was less than -0.25.
RESHLRLAAWSKAEAQGSRC showed a growth estimate of less than -0.25.
For EFEPMGLTSVKSGDATVSK, the growth estimate was less than -0.25.
In the case of YGIVGRGRQYMHKL, the growth estimate was less than -0.25.
For GLFLRGNM, the growth estimate was less than -0.25.
Substance VPVPREASPFCPS has a growth estimate of less than -0.25.
With GLRERYQLAFSADSTQMASS the growth estimate was less than -0.25.
With LRAELAYKHTRIVQIRTDFR the growth estimate was less than -0.25.
KCVHRDPCSRWS gave a growth estimate of less than -0.25.
MDTSLTRQGSVRALTANLAR was tested, and the growth estimate was less than -0.25.
In the case of SVQGQKRNLPAWFTATPVAA, the growth estimate was less than -0.25.
CNRRRWVTIRVCILGGFIRC was tested, and the growth estimate was less than -0.25.
Substance RNTLSNADKGCLSIHAVAGR has a growth estimate of less than -0.25.
PPIVSVSTLNVGIVSWP gave a growth estimate of less than -0.25.
In the case of GRMGVGGQSPLRMSSLGTRG, the growth estimate was less than -0.25.
TGAVCHPIVQPWFFS was tested, and the growth estimate was less than -0.25.
ALSVTRCGSVRTQGGCWRSQ was tested, and the growth estimate was less than -0.25.
GSEYVVWRPPQASSCANETV was tested, and the growth estimate was less than -0.25.
In the case of RREHWSMIVYG, the growth estimate was less than -0.25.
For EESRRNGQGPSLYFLTRGGM, the growth estimate was less than -0.25.
Substance RHRTNKRGQAVDL has a growth estimate of less than -0.25.
LQY gave a growth estimate of -0.145.
Work on IGTRGSKPNSSLG yielded a growth estimate of less than -0.25.
Substance LWRSAVNCPHLRLYSYW has a growth estimate of less than -0.25.
Substance YRWVHPQWGPSRDQPNRCSA has a growth estimate of -0.243.
With YEQGMRRHSHC the growth estimate was less than -0.25.
Substance ILKVWSALRPDTRMSMGPLP has a growth estimate of less than -0.25.
Work on SSSLGES yielded a growth estimate of less than -0.25.
With RVGIHKQG the growth estimate was less than -0.25.
PSCAGPFPGVYNAYSPCCSV gave a growth estimate of less than -0.25.
Substance MWYSLWDLGLLQ has a growth estimate of -0.246.
For GLRAGMVPH, the growth estimate was less than -0.25.
In the case of MDMYQEPRRLPWTARRRECA, the growth estimate was less than -0.25.
QSLRHPPVDPY showed a growth estimate of less than -0.25.
In the case of VGSPTPE, the growth estimate was less than -0.25.
GPGTGICFGYHAGLLPDE showed a growth estimate of less than -0.25.
For VGELD, the growth estimate was less than -0.25.
With FRVGA the growth estimate was less than -0.25.
Work on LQLCILMGLKSAIAGDCNRP yielded a growth estimate of less than -0.25.
Substance AEFGLNEGTADQ has a growth estimate of less than -0.25.
For RASPWNQLSRSGVRSPHASG, the growth estimate was less than -0.25.
With YLCKHG the growth estimate was -0.248.
In the case of GVDIKRS, the growth estimate was less than -0.25.
VMGDFIF gave a growth estimate of 0.0195.
Substance RYIFGTRWDLIPLACNTALL has a growth estimate of less than -0.25.
In the case of LGLRFG, the growth estimate was less than -0.25.
With FIWGRGKLGSKIKQLSSMSA the growth estimate was less than -0.25.
With GPVGTSL the growth estimate was less than -0.25.
LTCGPLILFLGGHEGGLWVS gave a growth estimate of less than -0.25.
With QWYSY the growth estimate was less than -0.253.
VFGHSASRKEWIIVQIGACN gave a growth estimate of less than -0.25.
Work on SGGLLAGNCRWA yielded a growth estimate of less than -0.25.
ETSVGWAKDEVTFGPHPWLR was tested, and the growth estimate was less than -0.25.
Work on VVGHSKC yielded a growth estimate of less than -0.25.
Work on TLRESARYCRVQFSYWSGDC yielded a growth estimate of less than -0.25.
Substance SIQMPGLQLGALG has a growth estimate of less than -0.25.
Work on SKVFFLYRCYG yielded a growth estimate of less than -0.25.
GLRVEA showed a growth estimate of -0.243.
For IAFVYNSSRTRGFRELKSEA, the growth estimate was less than -0.25.
PNHSCAKCADTRPGIITFRT was tested, and the growth estimate was less than -0.25.
For GYKFTL, the growth estimate was less than -0.25.
For VGPVHRGATV, the growth estimate was less than -0.25.
PYLCPREVESIGGRMCMLGV showed a growth estimate of less than -0.25.
RGVGSTRKGPTLAKCVPGLL showed a growth estimate of less than -0.25.
WYDRGGSAG showed a growth estimate of less than -0.25.
In the case of ISATKRLA, the growth estimate was less than -0.25.
GMTCLLYRNAGGLESASIRA was tested, and the growth estimate was less than -0.25.
FIGVTPVDFLLLKPGHICLP gave a growth estimate of less than -0.25.
YAPPVLLGLSNCCLTT showed a growth estimate of less than -0.25.
Work on NWIPYEHVQNPGAASML yielded a growth estimate of less than -0.25.
VATWDR was tested, and the growth estimate was less than -0.25.
Work on MALKVEIP yielded a growth estimate of -0.246.
In the case of TCNVRGMPQR, the growth estimate was less than -0.25.
Substance VTAELWQEGVNKRCMTSGAG has a growth estimate of less than -0.25.
KCA was tested, and the growth estimate was less than -0.25.
Work on VLIPLLGLQRWKTRSVRDRL yielded a growth estimate of less than -0.25.
For FVILLVLYLGLRLSVKGRSF, the growth estimate was less than -0.25.
With TWTRDFHMFSVARTFHNRCL the growth estimate was less than -0.25.
Substance GSHEFLALKYEMTQPDQPGS has a growth estimate of less than -0.25.
TGEGCDSHIPDRDPRDRFLT was tested, and the growth estimate was -0.203.
Work on NRVYASPVKTA yielded a growth estimate of less than -0.25.
Substance LPVIKTVSIVRARGVWISTQ has a growth estimate of less than -0.25.
TTHH was tested, and the growth estimate was less than -0.25.
With LCLNPRHNSRIFYPRA the growth estimate was less than -0.25.
VGTFHDPITEHDISHQK showed a growth estimate of less than -0.25.
Work on GTMYPSRPDRSKALHSASPL yielded a growth estimate of less than -0.25.
With PQMDGQGSRDEQTVGSAGQH the growth estimate was less than -0.25.
SRLRRVSGGATLARTRTAYI gave a growth estimate of less than -0.25.
For NPEF, the growth estimate was less than -0.25.
Work on SSMNRATHYEAFFAMHVYPM yielded a growth estimate of less than -0.25.
Substance RRYGRH has a growth estimate of less than -0.25.
Work on RGFYYLMHLNEGTWQENSHR yielded a growth estimate of less than -0.25.
In the case of DRVVQIDQRGPIVQLVLQGP, the growth estimate was less than -0.25.
LPSTRK showed a growth estimate of less than -0.25.
Substance KMPFQTTSVRGVITN has a growth estimate of less than -0.25.
VKGVSKL showed a growth estimate of less than -0.25.
GVEKC gave a growth estimate of less than -0.25.
Substance TELSCTRLLGLSRAANTRRL has a growth estimate of less than -0.25.
For HAILMTFDARLRLNFKRSTV, the growth estimate was less than -0.25.
With SGTGCHAARDP the growth estimate was less than -0.25.
Work on AQKFGLCGI yielded a growth estimate of less than -0.25.
TRCMLPVYAGTR gave a growth estimate of less than -0.25.
With ACSLILTVDAIVRGYVIFRR the growth estimate was less than -0.25.
For LSRRDWCQHQQDGNICSWHY, the growth estimate was less than -0.25.
Work on RGFY yielded a growth estimate of less than -0.25.
With MIHYSA the growth estimate was less than -0.25.
VGWSGH was tested, and the growth estimate was less than -0.25.
In the case of CDAYASSQRSSGRKPNLLM, the growth estimate was less than -0.25.
AGTRNGPGRQVDMQGCR was tested, and the growth estimate was less than -0.25.
Substance VETRVRVLQRRLVRTHYPQR has a growth estimate of less than -0.25.
